The chains are these.
T1: AP4µ^EN–TurboID–V5 (human (endogenous in HeLa)) (UniProt O00189)
T1 sequence: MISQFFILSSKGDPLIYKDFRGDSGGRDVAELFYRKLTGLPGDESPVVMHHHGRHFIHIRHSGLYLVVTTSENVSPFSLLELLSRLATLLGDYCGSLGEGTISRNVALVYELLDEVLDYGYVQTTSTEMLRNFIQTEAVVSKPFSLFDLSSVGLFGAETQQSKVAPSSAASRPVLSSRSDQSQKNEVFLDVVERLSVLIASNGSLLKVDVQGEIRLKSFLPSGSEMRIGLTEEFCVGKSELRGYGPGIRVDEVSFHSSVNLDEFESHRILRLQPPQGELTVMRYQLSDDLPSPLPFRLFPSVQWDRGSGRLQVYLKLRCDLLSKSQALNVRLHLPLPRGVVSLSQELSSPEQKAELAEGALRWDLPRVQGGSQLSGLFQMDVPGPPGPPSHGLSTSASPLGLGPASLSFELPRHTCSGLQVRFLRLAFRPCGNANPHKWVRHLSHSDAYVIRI

By UniProt entry, the sequences of proteins in these tests, tags left out. Residues count along the entry.
UniProt Q96CW1: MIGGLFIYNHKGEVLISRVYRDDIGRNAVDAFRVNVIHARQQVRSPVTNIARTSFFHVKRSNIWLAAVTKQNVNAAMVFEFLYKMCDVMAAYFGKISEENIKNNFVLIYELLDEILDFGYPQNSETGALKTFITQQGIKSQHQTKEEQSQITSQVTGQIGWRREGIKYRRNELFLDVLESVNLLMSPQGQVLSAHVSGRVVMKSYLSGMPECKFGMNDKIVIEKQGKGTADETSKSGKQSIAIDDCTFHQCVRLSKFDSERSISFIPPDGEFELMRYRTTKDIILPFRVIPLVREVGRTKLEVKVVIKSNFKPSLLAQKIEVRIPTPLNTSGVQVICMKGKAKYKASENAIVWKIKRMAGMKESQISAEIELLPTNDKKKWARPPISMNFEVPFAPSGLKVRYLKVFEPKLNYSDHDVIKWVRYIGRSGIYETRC
UniProt P56199, residues 29-1179: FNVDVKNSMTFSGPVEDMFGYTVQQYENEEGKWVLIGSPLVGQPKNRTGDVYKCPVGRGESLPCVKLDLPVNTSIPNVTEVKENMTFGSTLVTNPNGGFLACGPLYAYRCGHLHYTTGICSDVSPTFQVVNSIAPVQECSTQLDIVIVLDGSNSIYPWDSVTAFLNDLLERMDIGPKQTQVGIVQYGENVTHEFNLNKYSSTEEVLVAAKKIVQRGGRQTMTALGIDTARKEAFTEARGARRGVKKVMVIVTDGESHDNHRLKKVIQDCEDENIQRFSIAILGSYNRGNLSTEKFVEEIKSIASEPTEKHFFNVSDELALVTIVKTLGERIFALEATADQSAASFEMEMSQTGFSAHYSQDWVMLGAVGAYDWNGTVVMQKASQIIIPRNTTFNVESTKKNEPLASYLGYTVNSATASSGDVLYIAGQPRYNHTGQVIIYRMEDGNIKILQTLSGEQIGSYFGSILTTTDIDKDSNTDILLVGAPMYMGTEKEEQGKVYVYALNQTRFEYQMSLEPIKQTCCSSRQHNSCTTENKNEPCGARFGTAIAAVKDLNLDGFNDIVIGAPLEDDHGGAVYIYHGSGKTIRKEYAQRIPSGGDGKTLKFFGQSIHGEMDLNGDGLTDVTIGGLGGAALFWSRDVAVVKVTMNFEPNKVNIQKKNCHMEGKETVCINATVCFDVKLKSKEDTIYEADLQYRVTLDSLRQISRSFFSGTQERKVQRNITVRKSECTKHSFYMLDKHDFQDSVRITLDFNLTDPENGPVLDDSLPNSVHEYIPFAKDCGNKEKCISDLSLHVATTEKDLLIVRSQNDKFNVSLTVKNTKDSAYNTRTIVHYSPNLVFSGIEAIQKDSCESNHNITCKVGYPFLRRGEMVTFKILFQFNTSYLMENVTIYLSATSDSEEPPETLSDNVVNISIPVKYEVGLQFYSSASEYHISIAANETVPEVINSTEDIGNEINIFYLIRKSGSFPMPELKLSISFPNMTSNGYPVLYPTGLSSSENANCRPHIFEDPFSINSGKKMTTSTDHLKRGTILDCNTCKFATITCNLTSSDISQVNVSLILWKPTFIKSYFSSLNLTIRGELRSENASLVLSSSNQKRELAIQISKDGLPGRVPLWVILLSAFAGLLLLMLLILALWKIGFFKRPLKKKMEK
UniProt Q9H1H9: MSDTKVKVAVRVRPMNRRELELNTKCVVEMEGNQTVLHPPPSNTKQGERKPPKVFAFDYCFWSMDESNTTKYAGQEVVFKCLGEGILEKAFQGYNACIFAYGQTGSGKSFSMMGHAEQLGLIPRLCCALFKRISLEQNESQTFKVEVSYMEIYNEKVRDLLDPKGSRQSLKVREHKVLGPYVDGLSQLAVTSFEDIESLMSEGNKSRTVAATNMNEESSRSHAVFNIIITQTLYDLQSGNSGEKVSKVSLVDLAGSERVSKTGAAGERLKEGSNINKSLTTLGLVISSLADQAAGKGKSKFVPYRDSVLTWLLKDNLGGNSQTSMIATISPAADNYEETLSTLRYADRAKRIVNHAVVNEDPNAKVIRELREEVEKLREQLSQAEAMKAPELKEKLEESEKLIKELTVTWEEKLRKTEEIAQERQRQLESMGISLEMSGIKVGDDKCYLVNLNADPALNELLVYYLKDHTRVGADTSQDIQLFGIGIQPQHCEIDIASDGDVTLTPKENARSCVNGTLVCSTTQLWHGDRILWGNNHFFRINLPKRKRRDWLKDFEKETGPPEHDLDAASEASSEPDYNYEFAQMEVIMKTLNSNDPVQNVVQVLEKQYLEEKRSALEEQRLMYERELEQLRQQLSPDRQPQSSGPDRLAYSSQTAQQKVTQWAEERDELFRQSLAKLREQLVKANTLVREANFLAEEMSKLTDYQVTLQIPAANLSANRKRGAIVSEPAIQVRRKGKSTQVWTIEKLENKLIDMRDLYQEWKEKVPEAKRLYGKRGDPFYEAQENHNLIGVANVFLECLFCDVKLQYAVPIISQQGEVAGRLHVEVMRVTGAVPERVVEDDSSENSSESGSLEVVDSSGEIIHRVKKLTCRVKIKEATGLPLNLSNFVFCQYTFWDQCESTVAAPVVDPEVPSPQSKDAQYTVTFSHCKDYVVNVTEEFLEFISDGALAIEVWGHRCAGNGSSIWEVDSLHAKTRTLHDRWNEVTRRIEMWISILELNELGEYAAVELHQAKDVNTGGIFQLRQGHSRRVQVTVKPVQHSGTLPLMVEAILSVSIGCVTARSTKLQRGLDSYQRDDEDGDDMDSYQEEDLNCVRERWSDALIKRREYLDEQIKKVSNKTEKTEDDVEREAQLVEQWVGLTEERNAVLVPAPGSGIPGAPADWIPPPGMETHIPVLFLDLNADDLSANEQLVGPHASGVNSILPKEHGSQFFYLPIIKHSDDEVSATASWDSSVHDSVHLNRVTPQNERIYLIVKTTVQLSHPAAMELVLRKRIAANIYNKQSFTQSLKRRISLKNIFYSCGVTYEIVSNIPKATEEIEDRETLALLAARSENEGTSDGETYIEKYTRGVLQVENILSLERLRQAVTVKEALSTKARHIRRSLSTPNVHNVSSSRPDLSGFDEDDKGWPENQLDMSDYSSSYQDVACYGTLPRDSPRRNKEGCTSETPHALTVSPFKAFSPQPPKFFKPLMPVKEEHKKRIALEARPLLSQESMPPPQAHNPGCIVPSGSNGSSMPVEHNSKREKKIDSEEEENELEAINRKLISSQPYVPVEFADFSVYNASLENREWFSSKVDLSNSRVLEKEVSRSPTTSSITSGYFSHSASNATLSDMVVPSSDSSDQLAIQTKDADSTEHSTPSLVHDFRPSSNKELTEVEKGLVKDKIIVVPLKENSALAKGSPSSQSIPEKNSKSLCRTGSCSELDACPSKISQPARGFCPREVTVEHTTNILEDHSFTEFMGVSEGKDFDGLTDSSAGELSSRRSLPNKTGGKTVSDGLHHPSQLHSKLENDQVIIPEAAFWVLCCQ
UniProt Q9Y6I3: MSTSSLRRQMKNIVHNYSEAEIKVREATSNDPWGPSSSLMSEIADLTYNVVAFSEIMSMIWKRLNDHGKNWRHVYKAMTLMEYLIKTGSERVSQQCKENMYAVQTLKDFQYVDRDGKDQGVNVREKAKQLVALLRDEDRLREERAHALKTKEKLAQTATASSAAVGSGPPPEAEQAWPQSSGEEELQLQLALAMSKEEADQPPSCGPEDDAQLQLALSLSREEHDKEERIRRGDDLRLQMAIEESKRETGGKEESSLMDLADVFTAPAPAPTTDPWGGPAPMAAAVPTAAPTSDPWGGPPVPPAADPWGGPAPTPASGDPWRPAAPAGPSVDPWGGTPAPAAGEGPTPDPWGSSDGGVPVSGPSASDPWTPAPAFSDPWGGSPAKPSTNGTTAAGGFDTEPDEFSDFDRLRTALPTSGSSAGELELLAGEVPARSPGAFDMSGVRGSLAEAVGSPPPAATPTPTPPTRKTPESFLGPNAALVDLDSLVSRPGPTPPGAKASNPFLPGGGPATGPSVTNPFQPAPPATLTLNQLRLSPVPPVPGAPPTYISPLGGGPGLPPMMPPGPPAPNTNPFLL
UniProt Q9P2D3: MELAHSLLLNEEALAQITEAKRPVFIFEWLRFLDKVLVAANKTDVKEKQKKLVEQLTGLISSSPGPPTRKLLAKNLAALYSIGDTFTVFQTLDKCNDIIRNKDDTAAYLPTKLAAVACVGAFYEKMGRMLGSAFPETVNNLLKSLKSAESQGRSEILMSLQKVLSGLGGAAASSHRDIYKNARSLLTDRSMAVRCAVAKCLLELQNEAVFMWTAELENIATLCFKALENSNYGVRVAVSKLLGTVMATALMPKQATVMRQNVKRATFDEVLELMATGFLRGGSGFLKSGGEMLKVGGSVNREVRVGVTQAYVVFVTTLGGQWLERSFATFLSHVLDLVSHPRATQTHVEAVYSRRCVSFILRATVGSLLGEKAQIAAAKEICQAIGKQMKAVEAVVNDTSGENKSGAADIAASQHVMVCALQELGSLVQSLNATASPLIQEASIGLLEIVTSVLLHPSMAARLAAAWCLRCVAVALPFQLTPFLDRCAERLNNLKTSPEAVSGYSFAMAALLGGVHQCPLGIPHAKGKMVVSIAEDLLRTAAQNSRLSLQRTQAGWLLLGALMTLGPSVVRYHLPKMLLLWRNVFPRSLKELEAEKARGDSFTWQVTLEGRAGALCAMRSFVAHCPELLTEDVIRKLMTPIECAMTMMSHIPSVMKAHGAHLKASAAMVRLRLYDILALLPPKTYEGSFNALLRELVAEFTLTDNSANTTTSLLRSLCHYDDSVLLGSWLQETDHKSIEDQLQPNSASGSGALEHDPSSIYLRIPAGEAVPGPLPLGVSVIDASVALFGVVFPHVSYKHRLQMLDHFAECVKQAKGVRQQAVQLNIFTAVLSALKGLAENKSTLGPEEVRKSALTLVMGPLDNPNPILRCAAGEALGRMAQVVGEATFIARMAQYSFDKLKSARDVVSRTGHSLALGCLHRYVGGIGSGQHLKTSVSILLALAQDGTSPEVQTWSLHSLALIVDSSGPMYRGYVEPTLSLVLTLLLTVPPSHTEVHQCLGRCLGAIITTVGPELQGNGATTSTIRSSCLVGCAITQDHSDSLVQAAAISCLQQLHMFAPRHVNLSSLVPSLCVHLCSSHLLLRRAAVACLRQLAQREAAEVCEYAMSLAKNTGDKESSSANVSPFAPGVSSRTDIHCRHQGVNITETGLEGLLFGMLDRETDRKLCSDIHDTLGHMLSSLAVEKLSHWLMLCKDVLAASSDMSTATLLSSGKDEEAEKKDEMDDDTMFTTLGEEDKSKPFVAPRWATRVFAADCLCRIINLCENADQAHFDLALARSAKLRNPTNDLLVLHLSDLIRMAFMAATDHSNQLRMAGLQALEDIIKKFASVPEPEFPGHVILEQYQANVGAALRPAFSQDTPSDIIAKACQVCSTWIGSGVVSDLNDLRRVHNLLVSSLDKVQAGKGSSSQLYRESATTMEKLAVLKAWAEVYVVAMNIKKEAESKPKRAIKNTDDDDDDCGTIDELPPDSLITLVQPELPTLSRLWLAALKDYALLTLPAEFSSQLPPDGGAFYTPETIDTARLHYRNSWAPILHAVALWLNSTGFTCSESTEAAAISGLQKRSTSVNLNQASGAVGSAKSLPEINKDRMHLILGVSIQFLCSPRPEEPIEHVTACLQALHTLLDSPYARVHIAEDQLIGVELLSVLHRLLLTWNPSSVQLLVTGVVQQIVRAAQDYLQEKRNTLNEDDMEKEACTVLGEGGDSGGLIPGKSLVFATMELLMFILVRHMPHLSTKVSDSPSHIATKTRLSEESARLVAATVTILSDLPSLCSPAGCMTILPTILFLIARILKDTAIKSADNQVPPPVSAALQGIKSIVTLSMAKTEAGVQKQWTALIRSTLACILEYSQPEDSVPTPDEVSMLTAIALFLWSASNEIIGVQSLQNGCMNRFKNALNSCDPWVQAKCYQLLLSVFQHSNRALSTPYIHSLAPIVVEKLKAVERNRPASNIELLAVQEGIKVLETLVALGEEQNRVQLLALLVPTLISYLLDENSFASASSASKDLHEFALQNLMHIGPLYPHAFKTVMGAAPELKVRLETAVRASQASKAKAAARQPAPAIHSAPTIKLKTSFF

T2: AP1µA^EN–TurboID–V5 (human (endogenous in HeLa)) (UniProt Q9BXS5)
T2 sequence: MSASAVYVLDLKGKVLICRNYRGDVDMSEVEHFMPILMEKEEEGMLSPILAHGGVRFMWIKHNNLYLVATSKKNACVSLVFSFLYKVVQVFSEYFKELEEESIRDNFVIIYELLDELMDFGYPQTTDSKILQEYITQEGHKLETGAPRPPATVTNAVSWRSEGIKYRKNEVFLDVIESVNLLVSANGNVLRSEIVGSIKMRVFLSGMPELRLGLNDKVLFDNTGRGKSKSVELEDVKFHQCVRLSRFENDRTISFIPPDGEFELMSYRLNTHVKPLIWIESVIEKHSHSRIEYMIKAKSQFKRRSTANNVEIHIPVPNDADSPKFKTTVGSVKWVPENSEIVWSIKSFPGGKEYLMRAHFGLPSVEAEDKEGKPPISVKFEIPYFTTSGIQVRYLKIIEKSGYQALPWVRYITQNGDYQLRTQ

T3: AP1µA–TurboID–V5 (transiently overexpressed) (UniProt Q9BXS5)
T3 sequence: T2 sequence

T4: V5–TurboID–CLCa^EN (human (endogenous in HeLa)) (UniProt P09496)
T4 sequence: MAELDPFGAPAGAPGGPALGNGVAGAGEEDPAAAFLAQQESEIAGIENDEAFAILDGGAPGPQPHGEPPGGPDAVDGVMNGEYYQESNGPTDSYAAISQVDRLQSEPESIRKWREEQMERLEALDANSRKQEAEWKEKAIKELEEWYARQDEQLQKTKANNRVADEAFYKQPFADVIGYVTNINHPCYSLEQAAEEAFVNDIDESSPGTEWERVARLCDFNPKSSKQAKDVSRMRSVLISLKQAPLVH

B1: tepsin (protein, UniProt Q96N21 1-525)
chain: MAAAPPLRDRLSFLHRLPILLKGTSDDDVPCPGYLFEEIAKISHESPGSSQCLLEYLLSRLHSSSGHGKLKVLKILLYLCSHGSSFFLLILKRNSAFIQEAAAFAGPPDPLHGNSLYQKVRAAAQDLGSTLFSDTVLPLAPSQPLGTPPATGMGSQARPHSTLQGFGYSKEHGRTAVRHQPGQAGGGWDELDSGPSSQNSSQNSDLSRVSDSGSHSGSDSHSGASREPGDLAERVEVVALSDCQQELSLVRTVTRGPRAFLSREEAQHFIKACGLLNCEAVLQLLTCHLRGTSECTQLRALCAIASLGSSDLLPQEHILLRTRPWLQELSMGSPGPVTNKATKILRHFEASCGQLSPARGTSAEPGPTAALPGPSDLLTDAVPLPGSQVFLQPLSSTPVSSRSPAPSSGMPSSPVPTPPPDASPIPAPGDPSEAEARLAESRRWRPERIPGGTDSPKRGPSSCAWSRDSLFAGMELVACPRLVGAGAAAGESCPDAPRAPQTSSQRTAAKEPPGSEPSAFAFLNA
B2: epsin-2 (protein, UniProt O95208 1-641)
chain: MTTSSIRRQMKNIVNNYSEAEIKVREATSNDPWGPSSSLMTEIADLTYNVVAFSEIMSMVWKRLNDHGKNWRHVYKALTLLDYLIKTGSERVAQQCRENIFAIQTLKDFQYIDRDGKDQGINVREKSKQLVALLKDEERLKAERAQALKTKERMAQVATGMGSNQITFGRGSSQPNLSTSHSEQEYGKAGGSPASYHGSPEASLCPQHRTGAPLGQSEELQPLSQRHPFLPHLGLASRPNGDWSQPCLTCDRAARATSPRVSSELEQARPQTSGEEELQLQLALAMSREVAEQEERLRRGDDLRLQMALEESRRDTVKIPKKKEHGSLPQQTTLLDLMDALPSSGPAAQKAEPWGPSASTNQTNPWGGPAAPASTSDPWPSFGTKPAASIDPWGVPTGATVQSVPKNSDPWAASQQPASSAGKRASDAWGAVSTTKPVSVSGSFELFSNLNGTIKDDFSEFDNLRTSKKTAESVTSLPSQNNGTTSPDPFESQPLTVASSKPSSARKTPESFLGPNAALVNLDSLVTRPAPPAQSLNPFLAPGAPATSAPVNPFQVNQPQPLTLNQLRGSPVLGTSTSFGPGPGVESMAVASMTSAAPQPALGATGSSLTPLGPAMMNMVGSVGIPPSAAQATGTTNPFLL
B3: protein numb homolog (protein, UniProt P49757 1-651)
chain: MNKLRQSFRRKKDVYVPEASRPHQWQTDEEGVRTGKCSFPVKYLGHVEVDESRGMHICEDAVKRLKAERKFFKGFFGKTGKKAVKAVLWVSADGLRVVDEKTKDLIVDQTIEKVSFCAPDRNFDRAFSYICRDGTTRRWICHCFMAVKDTGERLSHAVGCAFAACLERKQKREKECGVTATFDASRTTFTREGSFRVTTATEQAEREEIMKQMQDAKKAETDKIVVGSSVAPGNTAPSPSSPTSPTSDATTSLEMNNPHAIPRRHAPIEQLARQGSFRGFPALSQKMSPFKRQLSLRINELPSTMQRKTDFPIKNAVPEVEGEAESISSLCSQITNAFSTPEDPFSSAPMTKPVTVVAPQSPTFQANGTDSAFHVLAKPAHTALAPVAMPVRETNPWAHAPDAANKEIAATCSGTEWGQSSGAASPGLFQAGHRRTPSEADRWLEEVSKSVRAQQPQASAAPLQPVLQPPPPTAISQPASPFQGNAFLTSQPVPVGVVPALQPAFVPAQSYPVANGMPYPAPNVPVVGITPSQMVANVFGTAGHPQAAHPHQSPSLVRQQTFPHYEASSATTSPFFKPPAQHLNGSAAFNGVDDGRLASADRHTEVPTGTCPVDPFEAQWAALENKSKQRTNPSPTNPFSSDLQKTFEIEL
B4: GGA1 (protein, UniProt Q9UJY5 1-639)
chain: MEPAMEPETLEARINRATNPLNKELDWASINGFCEQLNEDFEGPPLATRLLAHKIQSPQEWEAIQALTVLETCMKSCGKRFHDEVGKFRFLNELIKVVSPKYLGSRTSEKVKNKILELLYSWTVGLPEEVKIAEAYQMLKKQGIVKSDPKLPDDTTFPLPPPRPKNVIFEDEEKSKMLARLLKSSHPEDLRAANKLIKEMVQEDQKRMEKISKRVNAIEEVNNNVKLLTEMVMSHSQGGAAAGSSEDLMKELYQRCERMRPTLFRLASDTEDNDEALAEILQANDNLTQVINLYKQLVRGEEVNGDATAGSIPGSTSALLDLSGLDLPPAGTTYPAMPTRPGEQASPEQPSASVSLLDDELMSLGLSDPTPPSGPSLDGTGWNSFQSSDATEPPAPALAQAPSMESRPPAQTSLPASSGLDDLDLLGKTLLQQSLPPESQQVRWEKQQPTPRLTLRDLQNKSSSCSSPSSSATSLLHTVSPEPPRPPQQPVPTELSLASITVPLESIKPSNILPVTVYDQHGFRILFHFARDPLPGRSDVLVVVVSMLSTAPQPIRNIVFQSAVPKVMKVKLQPPSGTELPAFNPIVHPSAITQVLLLANPQKEKVRLRYKLTFTMGDQTYNEMGDVDQFPPPETWGSL
B5: AP-1β1 (protein, UniProt Q10567 1-949)
chain: MTDSKYFTTTKKGEIFELKAELNSDKKEKKKEAVKKVIASMTVGKDVSALFPDVVNCMQTDNLELKKLVYLYLMNYAKSQPDMAIMAVNTFVKDCEDPNPLIRALAVRTMGCIRVDKITEYLCEPLRKCLKDEDPYVRKTAAVCVAKLHDINAQLVEDQGFLDTLKDLISDSNPMVVANAVAALSEIAESHPSSNLLDLNPQSINKLLTALNECTEWGQIFILDCLANYMPKDDREAQSICERVTPRLSHANSAVVLSAVKVLMKFMEMLSKDLDYYGTLLKKLAPPLVTLLSAEPELQYVALRNINLIVQKRPEILKHEMKVFFVKYNDPIYVKLEKLDIMIRLASQANIAQVLAELKEYATEVDVDFVRKAVRAIGRCAIKVEQSAERCVSTLLDLIQTKVNYVVQEAIVVIKDIFRKYPNKYESVIATLCENLDSLDEPEARAAMIWIVGEYAERIDNADELLESFLEGFHDESTQVQLQLLTAIVKLFLKKPTETQELVQQVLSLATQDSDNPDLRDRGYIYWRLLSTDPVAAKEVVLAEKPLISEETDLIEPTLLDELICYIGTLASVYHKPPSAFVEGGRGVVHKSLPPRTASSESAESPETAPTGAPPGEQPDVIPAQGDLLGDLLNLDLGPPVSGPPLATSSVQMGAVDLLGGGLDSLMGDEPEGIGGTNFVAPPTAAVPANLGAPIGSGLSDLFDLTSGVGTLSGSYVAPKAVWLPAMKAKGLEISGTFTRQVGSISMDLQLTNKALQVMTDFAIQFNRNSFGLAPAAPLQVHAPLSPNQTVEISLPLSTVGSVMKMEPLNNLQVAVKNNIDVFYFSTLYPLHILFVEDGKMDRQMFLATWKDIPNENEAQFQIRDCPLNAEAASSKLQSSNIFTVAKRNVEGQDMLYQSLKLTNGIWVLAELRIQPGNPSCTDLELSLKCRAPEVSQHVYQAYETILKN

Experimental findings from paper PMC11385326 are described below.

No constants are given. Whether binding was seen depends on the method and setting. In cells and extracts the contact can be indirect. Here binding means that the protein was enriched with, or labelled near, the bait; the list need not be complete. For some assays here: No binding means not detected with the bait. For some assays here: Sequences can lack the tags named with a protein.

The first experiment addresses T1, AP4µ^EN–TurboID–V5 (human (endogenous in HeLa)). Kind of experiment: proximity labelling; TurboID knocked in at the µ subunits of AP-1 to AP-4 in living HeLa cells, 50 µM biotin for 24 h; RIPA lysate (30 min, 24 G needle), streptavidin magnetic beads, label-free quantitative LC-MS; relative intensities compared between the AP datasets (log2 fold change >1 or <-1, P<0.05), control biotin-treated WT HeLa; four replicates.
For B1, the binding entry is given as “binds”.

For a further experiment, the target named is AP2µ^EN–TurboID–V5 (human (endogenous in HeLa)) (UniProt Q96CW1). The description is as above.
With “synaptojanin-1 (from UniProt O43426 1-1573)”, the binding entry is listed as “binds”. For the molecule ITGA1 (from UniProt P56199 29-1179), the binding result is on record as “binds”. For the molecule B2, the binding result is given as “binds”.

As to B3, the binding entry is given as “binds”.

The target in the next experiment is T2, AP1µA^EN–TurboID–V5 (human (endogenous in HeLa)). The experiment is described as follows: proximity labelling; TurboID fused to AP1µA in living HeLa cells (knock-in or transient overexpression), 50 µM biotin for 24 h; RIPA lysate, streptavidin magnetic beads, on-bead trypsin digest, label-free quantitative LC-MS; enriched: log2 fold change >1 and P<0.05 against cytosolic TurboID–V5 and biotin-treated WT HeLa; three replicates.
On to AP-1σ (human (endogenous in HeLa)), for which the binding result is listed as “binds”. On the same count and under the same terms, for GGA2 (from UniProt Q9UJY4 1-613) the value was “binds”; for “kinesin-like protein KIF13A (from UniProt Q9H1H9 1-1805)”, “binds”. Take AP-1γ (human (endogenous in HeLa)): the binding entry is on record as “binds”. On to B4, for which the binding entry is “binds”. Consider B5, for which the binding result is “binds”.

For a further experiment, the target named is T3, AP1µA–TurboID–V5 (transiently overexpressed). Described as above.
With AP-1σ (human (endogenous in HeLa)), the binding entry was “no binding”.

Turning to GGA2 (from UniProt Q9UJY4 1-613), the binding result is “binds”. For “kinesin-like protein KIF13A (from UniProt Q9H1H9 1-1805)”, the binding result is reported as “binds”. Take AP-1γ (human (endogenous in HeLa)): the binding result is “binds”.

On to B5, for which the binding result is on record as “binds”.

Another experiment deals with T4, V5–TurboID–CLCa^EN (human (endogenous in HeLa)). Kind of experiment: proximity labelling; V5–TurboID–CLCa knock-in in living HeLa cells, 50 µM biotin for 24 h; RIPA lysate, streptavidin magnetic beads, label-free quantitative LC-MS; compared with the AP1µA and AP2µ TurboID datasets and biotin-treated WT HeLa; four replicates.
Take “synaptojanin-1 (from UniProt O43426 1-1573)”: the binding entry is on record as “binds”.

epsin-1 (from UniProt Q9Y6I3 1-576): the binding entry was “binds”.

For “HEAT repeat containing 5B (from UniProt Q9P2D3 1-2071)”, the binding entry is “binds”.

With B3, the binding result is “binds”.
